Library screen at single concentrations

Chains of the proteins cited; added tags and fusions are not shown. Residues count along the entry.
UniProt Q4DA54, 1-478: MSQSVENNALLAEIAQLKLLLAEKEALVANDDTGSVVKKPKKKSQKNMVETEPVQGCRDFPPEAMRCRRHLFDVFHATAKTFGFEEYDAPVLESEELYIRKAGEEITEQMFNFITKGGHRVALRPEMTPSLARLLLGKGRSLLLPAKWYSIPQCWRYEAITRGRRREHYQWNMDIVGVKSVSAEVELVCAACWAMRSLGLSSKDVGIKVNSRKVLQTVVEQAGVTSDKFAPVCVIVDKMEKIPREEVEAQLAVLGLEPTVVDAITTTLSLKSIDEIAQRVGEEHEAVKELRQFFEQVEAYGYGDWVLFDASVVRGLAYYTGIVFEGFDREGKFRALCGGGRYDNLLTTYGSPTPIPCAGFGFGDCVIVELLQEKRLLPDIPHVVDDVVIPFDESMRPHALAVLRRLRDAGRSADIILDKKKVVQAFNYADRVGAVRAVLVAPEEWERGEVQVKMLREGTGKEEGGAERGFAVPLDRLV
UniProt A4I591, 1-473: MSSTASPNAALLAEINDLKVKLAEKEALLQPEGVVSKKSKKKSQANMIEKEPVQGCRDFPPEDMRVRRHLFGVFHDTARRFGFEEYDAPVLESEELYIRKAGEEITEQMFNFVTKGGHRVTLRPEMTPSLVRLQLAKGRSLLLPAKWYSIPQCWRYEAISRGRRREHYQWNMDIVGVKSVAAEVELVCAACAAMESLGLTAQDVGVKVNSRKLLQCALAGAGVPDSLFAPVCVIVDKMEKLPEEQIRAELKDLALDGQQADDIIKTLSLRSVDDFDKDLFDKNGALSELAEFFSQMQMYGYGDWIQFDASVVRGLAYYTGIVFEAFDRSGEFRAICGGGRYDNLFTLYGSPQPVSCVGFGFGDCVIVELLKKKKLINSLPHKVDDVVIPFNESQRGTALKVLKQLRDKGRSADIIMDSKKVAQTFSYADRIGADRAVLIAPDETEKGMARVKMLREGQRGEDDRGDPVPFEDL
UniProt P9WPC5, whole entry: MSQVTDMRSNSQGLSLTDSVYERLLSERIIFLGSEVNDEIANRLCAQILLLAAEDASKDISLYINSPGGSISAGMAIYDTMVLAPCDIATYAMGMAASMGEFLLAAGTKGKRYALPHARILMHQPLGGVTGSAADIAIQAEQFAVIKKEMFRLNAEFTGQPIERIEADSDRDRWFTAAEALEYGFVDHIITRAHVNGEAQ
UniProt P9WPC3, whole entry partner: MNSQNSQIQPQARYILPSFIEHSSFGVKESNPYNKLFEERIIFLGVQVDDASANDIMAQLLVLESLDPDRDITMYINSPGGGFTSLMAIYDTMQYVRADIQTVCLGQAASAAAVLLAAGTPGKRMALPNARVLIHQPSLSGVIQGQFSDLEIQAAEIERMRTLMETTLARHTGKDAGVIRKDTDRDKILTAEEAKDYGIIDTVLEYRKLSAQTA

A: 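Assay of Toxoplasma gondii numbers, read through their beta-galactosidase reporter with a colour substrate. Compounds at 10 µM. The record gives no direction; the compounds picked for IC50 retests had high values, so higher reads as fewer parasites. Of about 67,000 compounds tested this way, about 260 (0.38%) reached 50% or more in at least one test.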
B: 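Cell assay of Leishmania donovani living inside macrophages; the read-out is not stated. Compounds at 30 µM. Direction is inferred from retests: higher values go with stronger inhibition. About 69,000 compounds were tested under these conditions; 1.5% (about 1,000) showed 50% or more at least once.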
C: 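Histidine-tRNA ligase, Trypanosoma cruzi CL Brener (UniProt Q4DA54). Enzyme assay of histidyl-tRNA synthetase; the read-out is not stated. Concentration: 30 µM. Direction is inferred from retests: higher values go with stronger inhibition. Size under these conditions: about 69,000 compounds, about 31 of them at 50% or above in at least one test.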
D: 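Enzyme assay of histidyl-tRNA synthetase; the read-out is not stated. Target: Histidine-tRNA ligase, Leishmania infantum (UniProt A4I591). Concentration: 30 µM. The record gives no direction; compounds that gave an IC50 in retests scored well above the rest, so higher reads as stronger inhibition. The assay is labelled LdHisRS but filed under L. infantum. Size under these conditions: about 69,000 compounds, about 410 of them at 50% or above in at least one test.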
E: 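ClpP1P2, Mycobacterium tuberculosis (UniProt P9WPC5 and UniProt P9WPC3). Protease assay of ClpP1P2, read by the AMC dye that it sets free. Concentration: 50 µM. Direction is inferred from only a few compounds that gave an IC50; most scored high, so higher reads as stronger inhibition. Most other retested compounds had strongly negative values. Of about 69,000 compounds tested this way, about 10 (0.015%) reached 50% or more in at least one test.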
F: 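Whole-parasite assay of Trypanosoma brucei over 72 hours; the read-out is not stated. Tested at 30 µM. Higher reads as stronger inhibition (inferred: compounds with an IC50 in retests scored well above the rest). Values scatter widely below zero; nearly all retest evidence comes from the higher of the two concentrations used. Of about 64,000 compounds tested this way, about 940 (1.5%) reached 50% or more in at least one test.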

The filed quantity is “Percent Effect” (%).
The controls that fix the scale are not given in the record; negative values are as filed.
The compounds are a random part of those screened.
Two or more numbers in one place are separate tests of the same structure; such repeats can differ widely.
A dash means the value is not listed here; it may have been measured.

Compound	A	B	C	D	E	F
[H][C@@]12CCCO[C@]1([H])[C@@H](OCCCn1cccn1)CN2c1nnc(C)s1	-4.883	10.97	-	-	-	5.86
O=C(O)c1cc(NS(=O)(=O)c2ccc(Br)s2)c(F)cc1F	17.3	1.077	2.041	5.505	-34.49	-
CNC(=O)COC1COC2(CCN(c3ccc(C)nn3)CC2)C1 (stereo not shown)	-	-	5.376	12.28	-7.461	-
COc1cccc(C2C3=C(COC3=O)Nc3[nH]nc(C)c32)c1OC (stereo not shown)	3.635	16.34	1.136	16.67	3.029	-4.079
Cc1csc(N2CCCN(C(=O)C3(C#N)CCCC3)CC2)n1	4.499	18.56	4.734	16.07	-26.79	14.05
Cc1ncc(-c2ccncc2)c(C2CCN(C(=O)c3ccno3)CC2)n1	6.805	25.68	-40.15	-89.86	-5.071	-21.65
CN(CC(=O)NC(Cc1ccsc1)c1cccnc1)Cc1ccccn1 (stereo not shown)	-	-	6	20.13	-31.2	-
CC(Cn1ccnc1)NC(=O)N(C)Cc1ccc2c(c1)OCO2 (stereo not shown)	21.85	4.514	2.882	3.571	-13.27	-4.007
O=C(O)C(F)(F)F.[H][C@@]12CCN(c3cnccn3)C[C@]1([H])CN(C(=O)COCC)C2	5.723	24.84	-	-	-	-17.39
CC(=O)N1CCC[C@H]1C(=O)N(C)CCCOc1ccccc1	14.21	20.87	8.287	12.68	0.8052	-8.867
CN(Cc1cccs1)C(=O)Cn1cc(NC(=O)C(C)(C)C)cn1	9.205	2.703	5	11.71	0.05055	5.788
[H][C@@]12CCN(C(=O)c3ccc(S(=O)(=O)NC4CCC4)cc3)[C@]1([H])CNC2	-	11.78	-	-	-	-20.02
Cc1noc(C)c1CCCNC(=O)C1CCN(C(C)C)CC1	-15.88	24.48	3.061	14.88	-4.88	10.33
CN1CCN(C(=O)c2cc3sccc3n2Cc2ccccc2)CC1	-14.34	-22.88	6.186	7.692	-18.44	20.51
CCOc1ccccc1C(C(=O)O)N(C)Cc1nnc(C)o1 (stereo not shown)	0.5942	9.076	4.02	24.71	-12.68	-4.633
Cc1cnc(CN(C)C2CCN(Cc3ccc(Cl)s3)C2)o1 (stereo not shown)	1.627	9.797 and 11.38	6.024	12.82	-23.14	-10.5
CN(CCN1CCOCC1)C(=O)CCCOCCc1ccccc1	-0.5612	-18.57	6.667	13.21	8.28	1.776
CN(C)c1ccc(NC(=O)c2cccc(N(C)C)c2)nc1	0.4515	-2.123	6.863	6.667	9.568	-32.16
CCn1cc(CN2CCCCC2CCn2ccnc2C)cc1C#N (stereo not shown)	-1.71	-1.741	12.29	11.46	0.9692	2.091
Cn1ncc2c1CCCC2NCc1cccc(F)c1 (stereo not shown)	-	-	3.198	16.67	-9.356	-
COCCN(Cc1nccs1)c1nc2c(s1)c(C)nn2C	-26.28	0.8335	9.091	22.22	-1.174	-40.53
CN(CCCc1n[nH]c(N)c1C#N)C(=O)NC1CC1	0.3045	11.4	0.6494	6.452	-3.355	19.88
O=C(c1ccc2sccc2c1)N1CCC(C(=O)O)(n2cccn2)CC1	-14.46	24.73	-8.247	8.571	-3.797	-26.58
COCc1nc(C2CCN(Cc3nccn3C)CC2)no1	-21.03	1.095 and -5.252	4.478	3.158	0.641	-23.1
Cc1cc(C(F)(F)F)n2nc(C3CCN(S(=O)(=O)N(C)C)CC3)cc2n1	-8.406	4.01	-1.515	-13.04	-15.47	7.046
Cc1nnc(CN2CCCC2c2ccc3c(c2)OCCO3)n1C (stereo not shown)	-1.973	17.04	9.184	17.74	-9.453	-39.24
Cc1nc(C2CCCN2C(=O)c2ccccc2)ncc1C(N)=O (stereo not shown)	1.165	-23.02	0.5464	8.029	2.303	17.41
Fc1ccc(Sc2ccccc2CNC2=NCCN2)cc1	-	-	3.093	14.94	-7.86	-
Cc1ccc(S(=O)(=O)CCC(=O)N(C)Cc2cnn(C)c2)cc1	13.6	-3.227	-3.067	-4.938	12.56	-83.8
CC(C)(C)n1cc(CNC2CCN(C(=O)c3ccoc3)CC2)cn1.Cl	-0.2157	17.38	-	-	-	-33.37
O=C(O)C(F)(F)F.O=C(O)C(F)(F)F.O=C(O)C(F)(F)F.[H][C@@]12CO[C@@H](CN(C)Cc3cccnc3)[C@]1([H])CCN(Cc1ccco1)C2	8.226	2.983	-	-	-	-68.21
Cc1cc(C)cc(CN2CCN(C(=O)CCc3n[nH]c(C)n3)CC2=O)c1	27.95	-32.53	0.4292	-1.639	14.58	-105.7
CC(OCC1CC1)C(=O)N1CCCN(c2cccnn2)CC1 (stereo not shown)	-6.082	4.669	-3.175	19.18	7.663	-30.47
O=C(O)C(F)(F)F.[H][C@@]12CO[C@@H](CNC(=O)c3cnn(C)c3)[C@]1([H])CCN(Cc1ccco1)C2	14.43	24.86	-	-	-	11.92
COc1ccccc1-n1cc(C(=O)NCCCn2ccnn2)cn1	-	4.423	5.941	10.87	0.1625	-24
CC(C)(CNC(=O)Nc1ccc(S(=O)(=O)C(F)F)cc1)N1CCOCC1	-6.679	23.24	7.937	8.219	6.434	-465

Some entries from above, unchanged:

- CC(C)(C)n1cc(CNC2CCN(C(=O)c3ccoc3)CC2)cn1.Cl : A: -0.2157%; B: 17.38%; F: -33.37%
- Cc1ncc(-c2ccncc2)c(C2CCN(C(=O)c3ccno3)CC2)n1 : A: 6.805%; B: 25.68%; C: -40.15%; D: -89.86%; E: -5.071%; F: -21.65%

The values are deposited in ChEMBL (CHEMBL3988442, “University of Dundee, Small-Polar-MMV Screening Library” (2021)).